This test concerns the target T1, Enkurin (ENKUR) (human) (UniProt Q8TC29).
T1 sequence: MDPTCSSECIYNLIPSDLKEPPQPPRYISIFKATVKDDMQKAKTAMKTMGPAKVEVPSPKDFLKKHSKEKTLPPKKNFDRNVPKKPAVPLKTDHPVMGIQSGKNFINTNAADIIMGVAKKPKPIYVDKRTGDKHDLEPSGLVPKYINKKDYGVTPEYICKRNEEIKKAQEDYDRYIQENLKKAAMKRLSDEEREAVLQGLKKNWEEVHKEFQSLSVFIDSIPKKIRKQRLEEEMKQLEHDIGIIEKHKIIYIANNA
Briefly: co-IP; RL95-2 and HEC-1-B cell lysates; Pierce Co-IP kit; antibodies against ENKUR, CTNNB1 or FBXW7, IgG as negative control; 12 h at 4°C; western blotting. (Immunoblotting shows a protein as a band on a membrane.)

By UniProt entry, the sequences of proteins in these tests, tags left out.
UniProt P35222: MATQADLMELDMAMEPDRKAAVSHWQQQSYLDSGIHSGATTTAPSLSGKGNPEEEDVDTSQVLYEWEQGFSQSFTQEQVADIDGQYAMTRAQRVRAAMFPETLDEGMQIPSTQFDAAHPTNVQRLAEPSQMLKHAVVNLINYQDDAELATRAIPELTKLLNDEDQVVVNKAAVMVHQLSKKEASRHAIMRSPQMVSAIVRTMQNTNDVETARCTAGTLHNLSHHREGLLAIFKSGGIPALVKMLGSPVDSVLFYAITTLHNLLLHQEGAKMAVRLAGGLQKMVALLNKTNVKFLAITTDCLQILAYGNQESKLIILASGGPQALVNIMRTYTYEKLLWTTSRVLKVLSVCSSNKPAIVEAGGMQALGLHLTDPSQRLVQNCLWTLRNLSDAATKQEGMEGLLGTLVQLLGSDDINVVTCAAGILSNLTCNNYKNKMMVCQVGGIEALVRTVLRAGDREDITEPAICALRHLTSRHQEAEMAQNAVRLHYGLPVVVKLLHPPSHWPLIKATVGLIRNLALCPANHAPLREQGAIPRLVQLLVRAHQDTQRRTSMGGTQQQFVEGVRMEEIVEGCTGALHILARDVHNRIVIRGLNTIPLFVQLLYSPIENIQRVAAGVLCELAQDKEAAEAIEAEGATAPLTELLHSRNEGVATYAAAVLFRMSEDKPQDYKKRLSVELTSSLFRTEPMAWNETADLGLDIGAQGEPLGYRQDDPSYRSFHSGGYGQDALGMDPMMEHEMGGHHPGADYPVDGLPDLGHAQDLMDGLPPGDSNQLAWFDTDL
UniProt Q969H0: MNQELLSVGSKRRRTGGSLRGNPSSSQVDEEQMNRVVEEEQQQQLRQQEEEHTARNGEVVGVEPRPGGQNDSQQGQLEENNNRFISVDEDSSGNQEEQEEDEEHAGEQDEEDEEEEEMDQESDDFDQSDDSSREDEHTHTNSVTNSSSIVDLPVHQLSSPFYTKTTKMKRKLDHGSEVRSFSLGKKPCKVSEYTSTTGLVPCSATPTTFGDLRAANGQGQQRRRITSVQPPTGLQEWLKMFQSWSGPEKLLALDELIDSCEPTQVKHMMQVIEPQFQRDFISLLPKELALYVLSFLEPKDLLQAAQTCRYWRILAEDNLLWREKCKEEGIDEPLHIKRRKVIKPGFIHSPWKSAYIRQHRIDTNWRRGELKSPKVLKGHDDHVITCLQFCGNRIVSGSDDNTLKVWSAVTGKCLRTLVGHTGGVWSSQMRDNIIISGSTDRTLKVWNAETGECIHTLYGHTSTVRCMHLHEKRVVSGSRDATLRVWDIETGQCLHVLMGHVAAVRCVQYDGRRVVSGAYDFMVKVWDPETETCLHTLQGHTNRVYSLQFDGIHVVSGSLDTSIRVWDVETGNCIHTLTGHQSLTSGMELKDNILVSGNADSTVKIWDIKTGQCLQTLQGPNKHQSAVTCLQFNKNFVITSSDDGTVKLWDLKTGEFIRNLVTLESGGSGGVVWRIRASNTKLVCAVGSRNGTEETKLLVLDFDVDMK

Results are given in words; binding and its absence hold for the method and conditions named. In cells and extracts the contact can be indirect. Some entries that bind do so weakly or less than the wild type.

For “Catenin beta-1 (CTNNB1, β-catenin) (from UniProt P35222 1-781)”, the binding entry was “binds”.
For the substance “F-box and WD repeat domain containing 7 (FBXW7) (from UniProt Q969H0 1-707)”, the binding entry was “binds”.

Values taken from paper PMC11844281.
